Experimental data: patent US9200082B2, “Methods and compositions involving fibrillizing polypeptides for nanofibers” (The University of Chicago, priority 2013, dated 2015)

Test system: Q11 nanofibers
Assay: Protein/peptide integration into Q11 nanofibers (sedimentation by centrifugation, supernatant analysis)
Settings: for integration into Q11 nanofibers: loss from supernatant after centrifugation

| Substance | integration into Q11 nanofibers | sedimentation / self-assembly in the absence of Q11 (solutions lacking Q11 peptides) | co-integration of βTail-cut and βTail-GFP into Q11 nanofibers (varying molar ratio of proteins during Q11 assembly, nanofiber fluorescence and cutinase activity (FIG. 3D)) |
| --- | --- | --- | --- |
| βTail-GFP: recombinant fusion of βTail, Gly-Ser linker, GFPuv and His6 expressed in E. coli; SEQ ID NO. 65 | efficiently integrated into Q11 nanofibers | retained in the supernatant when solutions lacked Q11 peptides; also recorded: not sedimented by centrifugation in the absence of Q11 at any concentration tested | co-integrated into Q11 nanofibers at a predictable dose, without loss of activity |
| βTmutant-GFP: fusion of GFP and a non-folding βTail mutant; SEQ ID NO. 67 | integrated poorly | – | – |

“Also recorded” adds a separate entry of the source.
